These are yes or no findings as the source states them, for the method shown. In cells and extracts the contact can be indirect. Some results given as binding are weak or reduced against the parent protein; the word gives no strength.
Biological target: Cav1.2, endogenous in mouse heart (mouse (endogenous in mouse heart)) (UniProt Q01815)
Assay: co-IP; endogenous proteins from mouse left ventricles; Dynabeads with anti-Cav1.2 antibody, anti-V5 antibody as control; immunoblot with anti-Myoscape and anti-Cav1.2

Protein sequences, listed by entry. Tags and fused reporters are not part of them.
UniProt Q01815: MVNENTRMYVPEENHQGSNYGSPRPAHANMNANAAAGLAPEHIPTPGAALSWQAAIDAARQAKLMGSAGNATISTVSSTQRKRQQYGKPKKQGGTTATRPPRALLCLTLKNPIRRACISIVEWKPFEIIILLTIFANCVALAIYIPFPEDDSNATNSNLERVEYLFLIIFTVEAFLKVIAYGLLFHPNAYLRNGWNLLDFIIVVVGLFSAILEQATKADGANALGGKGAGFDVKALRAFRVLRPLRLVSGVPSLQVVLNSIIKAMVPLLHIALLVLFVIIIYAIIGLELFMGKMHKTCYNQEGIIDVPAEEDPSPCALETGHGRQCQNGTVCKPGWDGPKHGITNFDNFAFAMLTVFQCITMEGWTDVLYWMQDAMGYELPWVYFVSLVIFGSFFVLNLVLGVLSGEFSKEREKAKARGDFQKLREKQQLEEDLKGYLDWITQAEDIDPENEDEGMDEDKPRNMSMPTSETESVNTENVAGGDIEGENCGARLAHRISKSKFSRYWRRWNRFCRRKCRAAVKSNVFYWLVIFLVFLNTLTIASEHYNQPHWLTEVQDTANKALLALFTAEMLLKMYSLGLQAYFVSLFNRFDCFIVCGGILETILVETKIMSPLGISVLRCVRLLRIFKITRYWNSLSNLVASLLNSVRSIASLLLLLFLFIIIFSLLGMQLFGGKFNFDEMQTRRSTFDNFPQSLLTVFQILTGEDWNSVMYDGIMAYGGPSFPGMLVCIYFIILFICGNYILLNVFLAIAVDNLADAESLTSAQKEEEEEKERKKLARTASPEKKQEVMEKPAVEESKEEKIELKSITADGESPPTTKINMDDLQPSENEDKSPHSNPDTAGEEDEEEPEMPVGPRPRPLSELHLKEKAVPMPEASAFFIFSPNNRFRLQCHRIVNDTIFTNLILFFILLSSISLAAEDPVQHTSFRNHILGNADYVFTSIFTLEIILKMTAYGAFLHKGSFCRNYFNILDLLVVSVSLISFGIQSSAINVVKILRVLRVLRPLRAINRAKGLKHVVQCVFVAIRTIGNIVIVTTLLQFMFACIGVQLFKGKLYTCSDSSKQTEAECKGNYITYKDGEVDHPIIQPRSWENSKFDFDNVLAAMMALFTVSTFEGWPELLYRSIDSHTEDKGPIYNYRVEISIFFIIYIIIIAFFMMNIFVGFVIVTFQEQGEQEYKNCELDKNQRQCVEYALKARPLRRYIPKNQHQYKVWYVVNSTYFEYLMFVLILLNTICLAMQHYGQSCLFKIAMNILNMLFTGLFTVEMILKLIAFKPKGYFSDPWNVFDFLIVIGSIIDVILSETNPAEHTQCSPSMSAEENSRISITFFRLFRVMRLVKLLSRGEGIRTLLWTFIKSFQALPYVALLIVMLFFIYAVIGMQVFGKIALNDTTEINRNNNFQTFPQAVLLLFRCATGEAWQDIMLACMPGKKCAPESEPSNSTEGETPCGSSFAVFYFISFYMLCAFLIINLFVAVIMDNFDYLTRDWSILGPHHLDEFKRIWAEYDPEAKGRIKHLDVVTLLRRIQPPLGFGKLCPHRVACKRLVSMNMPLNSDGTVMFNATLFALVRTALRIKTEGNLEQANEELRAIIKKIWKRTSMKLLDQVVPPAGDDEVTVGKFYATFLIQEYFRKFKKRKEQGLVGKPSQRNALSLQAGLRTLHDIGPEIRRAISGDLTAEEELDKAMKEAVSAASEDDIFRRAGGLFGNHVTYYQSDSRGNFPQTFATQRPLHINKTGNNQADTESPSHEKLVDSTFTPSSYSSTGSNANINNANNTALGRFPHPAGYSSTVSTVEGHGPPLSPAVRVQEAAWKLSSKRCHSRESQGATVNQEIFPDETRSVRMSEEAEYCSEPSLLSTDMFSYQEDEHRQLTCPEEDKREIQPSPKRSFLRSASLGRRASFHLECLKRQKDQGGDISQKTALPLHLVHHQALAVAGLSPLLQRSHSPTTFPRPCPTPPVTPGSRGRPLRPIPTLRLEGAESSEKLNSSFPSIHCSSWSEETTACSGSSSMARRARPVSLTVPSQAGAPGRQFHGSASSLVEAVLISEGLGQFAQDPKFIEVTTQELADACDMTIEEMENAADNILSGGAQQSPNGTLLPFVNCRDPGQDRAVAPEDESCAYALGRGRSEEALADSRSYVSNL

In the case of “Myoscape, endogenous in mouse heart (from UniProt Q8C9H6-1 1-844)”, the binding was “binds”.

From publication PMC5438100
